Experimental data: PubChem BioAssay AID493246 (Drosophila RNAi Screening Center, 2011)

- Purpose: 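Genes fly cells need to grow and stay alive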 (primary screen)
- Cells: Drosophila Kc and S2R+ cells
- Reagent: long dsRNA against Drosophila genes
- Read-out: 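Raw, unnormalised count of remaining cells in each well; per-plate z-scores of cell number underlie the calls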
- Scale: Kc cell number and S2R+ cell number: higher = more cells remaining
- Rule for the call: 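Active when the per-plate z-score of cell number is 3 or more in the direction of fewer cells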
In all, the deposit lists about 21,000 reagents; this is an unselected part of those with a known target gene and a result. Over the whole deposit, 429 (2%) are marked active. 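Values are raw and not normalised between plates; calls rest on per-plate z-scores that were not deposited.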 Not given: the amount of reagent, the time to read-out.

Silencing of CG5446 came out at: Kc cell number, rep 1 = 1.53e6; Kc cell number, rep 2 = 1.63e6; S2R+ cell number, rep 1 = 1.07e6; S2R+ cell number, rep 2 = 1.18e6; inactive. After knock-down of Jon65Aiv (Jonah 65Aiv) the results were Kc cell number, rep 1 = 1.39e6; Kc cell number, rep 2 = 1.41e6; S2R+ cell number, rep 1 = 1.11e6; S2R+ cell number, rep 2 = 1.20e6; inactive. Knock-down of CG10841 came out at: Kc cell number, rep 1 = 1.35e6; Kc cell number, rep 2 = 1.73e6; S2R+ cell number, rep 1 = 1.50e6; S2R+ cell number, rep 2 = 1.66e6; inactive. Against Peritrophin-A (Peritrophin A) the deposit lists Kc cell number, rep 1 = 1.48e6; Kc cell number, rep 2 = 1.53e6; S2R+ cell number, rep 1 = 1.05e6; S2R+ cell number, rep 2 = 1.15e6; inactive. Silencing of BBS9 (Bardet-Biedl syndrome 9) came out at: Kc cell number, rep 1 = 1.66e6; Kc cell number, rep 2 = 1.83e6; S2R+ cell number, rep 1 = 1.45e6; S2R+ cell number, rep 2 = 3.66e5; inactive. Silencing of Ntan1 (N-terminal amidohydrolase 1) gave: Kc cell number, rep 1 = 1.68e6; Kc cell number, rep 2 = 1.65e6; S2R+ cell number, rep 1 = 1.26e6; S2R+ cell number, rep 2 = 1.43e6; inactive.

Against CG1773, the values are Kc cell number, rep 1 = 1.36e6; Kc cell number, rep 2 = 1.37e6; S2R+ cell number, rep 1 = 1.05e6; S2R+ cell number, rep 2 = 1.15e6; inactive. With knock-down of zld (zelda), the record shows Kc cell number, rep 1 = 1.50e6; Kc cell number, rep 2 = 1.49e6; S2R+ cell number, rep 1 = 9.55e5; S2R+ cell number, rep 2 = 1.06e6; inactive. With knock-down of Alg12 (Alg12 alpha-1,6-mannosyltransferase) the results were Kc cell number, rep 1 = 1.37e6; Kc cell number, rep 2 = 1.52e6; S2R+ cell number, rep 1 = 1.36e6; S2R+ cell number, rep 2 = 1.44e6; inactive. CG3088 gave Kc cell number, rep 1 = 1.37e6; Kc cell number, rep 2 = 1.56e6; S2R+ cell number, rep 1 = 1.25e6; S2R+ cell number, rep 2 = 1.17e6; inactive. Knock-down of l(2)k05819 (lethal (2) k05819) resulted in: Kc cell number, rep 1 = 1.32e6; Kc cell number, rep 2 = 1.31e6; S2R+ cell number, rep 1 = 9.57e5; S2R+ cell number, rep 2 = 1.01e6; inactive. For CG15739, the values are Kc cell number, rep 1 = 1.63e6; Kc cell number, rep 2 = 1.56e6; S2R+ cell number, rep 1 = 1.11e6; S2R+ cell number, rep 2 = 1.18e6; inactive.

For RpL35A (Ribosomal protein L35A), the values are Kc cell number, rep 1 = 9.85e5; Kc cell number, rep 2 = 1.10e6; S2R+ cell number, rep 1 = 7.17e5; S2R+ cell number, rep 2 = 8.16e5; active. With knock-down of drm (drumstick), the screen gave Kc cell number, rep 1 = 1.51e6; Kc cell number, rep 2 = 1.37e6; S2R+ cell number, rep 1 = 1.09e6; S2R+ cell number, rep 2 = 1.29e6; inactive. With knock-down of Bulli, the screen gave Kc cell number, rep 1 = 1.39e6; Kc cell number, rep 2 = 1.35e6; S2R+ cell number, rep 1 = 1.12e6; S2R+ cell number, rep 2 = 1.26e6; inactive. With knock-down of CG6330, the screen gave Kc cell number, rep 1 = 5.27e5; S2R+ cell number, rep 1 = 8.26e5; inactive. With knock-down of CG5412 the results were Kc cell number, rep 1 = 1.46e6; Kc cell number, rep 2 = 1.56e6; S2R+ cell number, rep 1 = 1.23e6; S2R+ cell number, rep 2 = 1.26e6; inactive. After knock-down of sim (single-minded) the results were Kc cell number, rep 1 = 1.37e6; Kc cell number, rep 2 = 1.38e6; S2R+ cell number, rep 1 = 1.10e6; S2R+ cell number, rep 2 = 1.23e6; inactive.

CG11807 gave Kc cell number, rep 1 = 1.12e6; Kc cell number, rep 2 = 1.10e6; S2R+ cell number, rep 1 = 7.13e5; S2R+ cell number, rep 2 = 6.05e5; inactive. For Jhbp1 (Juvenile hormone binding protein 1) the deposit lists Kc cell number, rep 1 = 1.81e6; Kc cell number, rep 2 = 1.82e6; S2R+ cell number, rep 1 = 1.36e6; S2R+ cell number, rep 2 = 1.31e6; inactive. After knock-down of CG31419 the results were Kc cell number, rep 1 = 1.44e6; Kc cell number, rep 2 = 1.56e6; S2R+ cell number, rep 1 = 1.05e6; S2R+ cell number, rep 2 = 1.12e6; inactive.
